Laboratory results reported in PubChem BioAssay AID2685 (National Center for Advancing Translational Sciences (NCATS), 2010).
This is one part of the list. Shown are side measurements of this screen, not its main read-out; they come without a call. Compounds called inactive in the main read-out are mostly missing here. Potencies come from curve fits of mixed quality, noted in brackets.

Test: qHTS Assay for Lipid Storage Modulators in Drosophila S3 Cells;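 as to cell number change: cells counted by Cell Tracker Red CMTPX staining in the red channel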
Conditions: BODIPY lipid droplet fluorescence, 18-24 h; for cell number change: measured here: cell count max response, cells fed with added oleic acid
Method in brief: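 Drosophila S3 cells got compounds at several concentrations plus oleic acid (400 uM solution). Laser-scanning cytometry with 488 nm excitation read lipid droplets at 500-530 nm and cells at 575-640 nm. Percent activity was relative to 20 uM Triacsin C.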

[1] = measured here: lipid fluorescence (Fed channel) AC50, cells fed with added oleic acid
[2] = measured here: cell number channel AC50, cells fed with added oleic acid

SMILES | cell number change | AC50 [1] | AC50 [2]
COc1ccc(CNS(=O)(=O)c2cc(-c3cc(C)no3)ccc2C)cc1OC | -21.3% | 29.1 µM [falling, single point] | –
Cc1cccc(NC(=O)COC(=O)c2n[nH]c3ccccc23)c1C | -16.1% | – | 1.84 µM [rising, partial curve]
COc1ccccc1CCNC(=O)c1ccc(NC(=O)CC2SC(N3CCCCC3)=NC2=O)cc1 (centres undefined) | -1.97% | 6.51 µM [rising, single point] | –
Cc1ccc(N2C(=O)CCSC23C(=O)Nc2ccccc23)cc1 (centres undefined) | 42.4% | – | 32.6 µM [rising, single point]
CC(C)c1ccc(NC(=O)N2CCc3ccccc3C2)cc1 | 22.7% | – | 0.103 µM [rising, full curve, poor fit]
O=C(NC(Cc1ccccc1)C(=O)OCC(=O)N1CCc2ccccc21)c1ccco1 (centres undefined) | 209% | – | –
COc1ccc(C2C(C#N)=C(N)Oc3cc(C)n(Cc4ccco4)c(=O)c32)cc1 (centres undefined) | 4.07% | 1.64 µM [rising, partial curve] | –
CSc1ccccc1C(=O)NCc1ccc(C)cc1 | – | 2.91 µM [falling, single point] | 6.51 µM [falling, single point]
CN(C)S(=O)(=O)c1ccc(Oc2ccc(S(=O)(=O)N(C)C)cc2)cc1 | 8.3% | 29.1 µM [falling, single point] | 6.51 µM [rising, single point]
Cc1cc(C(=O)OCC(=O)Nc2ccc(F)cc2[N+](=O)[O-])c2ccccc2n1 | 13.7% | 1.64 µM [rising, partial curve] | –
Cc1ccccc1NC(=S)Nn1cnnc1 | -3.23% | 2.06 µM [falling, partial curve] | –
CC(O)[C@H]1CC[C@H]2[C@@H]3CC[C@H]4C[C@@H](O)CC[C@]4(C)[C@H]3C(=O)C[C@]12C (some centres undefined) | -35.8% | 0.146 µM [falling, full curve, poor fit] | 0.206 µM [falling, full curve, poor fit]
CNC(=O)Nc1ccc(Cn2cc(C(F)(F)F)ccc2=O)cc1 | 19.1% | – | –
Cc1cc(C)nc(Nc2n[nH]c(-c3ccccc3Br)n2)n1 | -8.92% | 0.731 µM [rising, full curve] | –
Cc1ccccc1CNC(=O)Cn1ccc2cc(S(=O)(=O)N3CCCCCC3)ccc21 | -12.6% | 6.51 µM [rising, single point] | –
O=C(NCc1ccccc1Cl)C1CCN(S(=O)(=O)c2ccc(F)cc2)CC1 | -3.22% | – | 0.82 µM [falling, full curve, poor fit]
O=C(Cn1cnc2ccccc2c1=O)NC1CCCc2ccccc21 (centres undefined) | 22.2% | 18.4 µM [rising, single point] | –
CN(Cc1ccccc1)C(=O)C1CCN(S(=O)(=O)c2cccc3nsnc23)CC1 | -22.2% | 6.51 µM [falling, single point] | –

One compound at a time (already shown). Values in the order: cell number change	AC50 [1]	AC50 [2]
`Cc1cc(C(=O)OCC(=O)Nc2ccc(F)cc2[N+](=O)[O-])c2ccccc2n1` is listed as 13.7%	1.64 µM [rising, partial curve]	–
`CC(O)[C@H]1CC[C@H]2[C@@H]3CC[C@H]4C[C@@H](O)CC[C@]4(C)[C@H]3C(=O)C[C@]12C` (some centres undefined) is listed as -35.8%	0.146 µM [falling, full curve, poor fit]	0.206 µM [falling, full curve, poor fit]

Later entries.

SMILES | cell number change | AC50 [1] | AC50 [2]
Cc1ccc(S(=O)(=O)N2CCC(=O)N(C(COCc3cccc(Cl)c3)Cc3ccccc3)CC2)cc1 (centres undefined) | -13% | 2.91 µM [rising, single point] | –
CC(C)CN(C(=O)COC(=O)c1ccccc1NCc1ccco1)c1c(N)n(Cc2ccccc2)c(=O)[nH]c1=O | – | – | 3.66 µM [rising, single point]
CCOc1ccc(N(CC(=O)NC2CCCC2)S(=O)(=O)c2ccccc2)cc1 | – | 6.51 µM [falling, single point] | –
O=C(CN(C(=O)CNS(=O)(=O)c1ccccc1)c1ccc(F)cc1)NCc1ccco1 | -17.1% | – | –
CC1CC(C)CN(C(=O)c2cccc(S(=O)(=O)N(C)c3ccccc3)c2)C1 (centres undefined) | 35% | – | 4.11 µM [rising, full curve]
COc1ccc(CCNC(=O)c2cccc(NC(=O)CC3SC(N4CCCCC4)=NC3=O)c2)cc1OC (centres undefined) | – | 1.58 µM [rising, partial curve] | –
O=C(NC1CCS(=O)(=O)C1)C1CCCCN1S(=O)(=O)c1ccc(Cl)cc1 (centres undefined) | 2.99% | 29.1 µM [rising, single point] | 0.291 µM [rising, full curve]
C/C(CCC(=O)OC[C@H]1O[C@H](C#Cc2ccccc2)C=C[C@@H]1Oc1ccc(C)cc1)=N\O[C@@H](C)CN1CCCCc2nc(C)c(C)cc21 | 14.1% | 6.51 µM [rising, partial curve, poor fit] | –
CS(=O)(=O)N(CC(=O)NCc1ccc2c(c1)OCO2)c1cccc(Cl)c1 | 19.6% | 20.6 µM [rising, partial curve, poor fit] | –
COc1cccc(CC(=O)OCC(=O)NC(C)c2ccc(F)cc2)c1 (centres undefined) | -0.777% | 20.6 µM [falling, single point] | –
COc1ccc(C(=O)NCCS(=O)(=O)N2CCc3ccccc3C2)c(OC)c1 | -14.8% | – | –
Cc1c(Nc2scc(-c3ccccc3)[n+]2-c2ccccc2)c(=O)n(-c2ccccc2)n1C | – | 0.00461 µM [falling, full curve, poor fit] | –
CCc1cccc(CC)c1NC(=O)COC(=O)C1(C)CC1(Cl)Cl (centres undefined) | – | 2.59 µM [falling, partial curve, poor fit] | 6.51 µM [falling, single point]
COc1cc(Br)cc(Br)c1OCC(=O)N/N=C/c1c(C)n(C)n(-c2ccccc2)c1=O | -41.4% | – | 1.03 µM [falling, full curve, poor fit]
Cc1cc(C)cc(NC(=O)c2ccc(Cn3nc(C)c(Cl)c3C)o2)c1 | -34.5% | 29.1 µM [falling, single point] | 29.1 µM [falling, single point]
COc1ccccc1OCCNC(=O)c1cccc(S(=O)(=O)N2CCN(Cc3ccccc3)CC2)c1 | -3.5% | 29.1 µM [falling, single point] | –
O=C(Cc1c(Cl)cccc1Cl)NCCc1ccc(Cl)cc1 | -3.71% | 3.66 µM [rising, single point] | 6.51 µM [falling, single point]
CCOC(=O)C1C(=O)CC(C)(O)C(C(=O)OCC)C1c1ccc(C)s1 (centres undefined) | 2.18% | 23.1 µM [rising, single point] | –
